Hit rate of the full screen: of about 340,000 compounds, about 6,200 (1.8%) were called active. The inconclusive results got no clear call from the source; some entries with a clear call stand among them for comparison. Calls come from the whole dose curve; as a rule, active = well fitted activation curve with a large enough effect; inconclusive = small, poorly fitted or top-dose-only effect; inactive = no such curve, though single readings can be large or run the other way. Where the call is inconclusive, the potency comes from a doubtful curve fit.
Test: A quantitative high throughput screen for small molecules that induce DNA re-replication in SW480 colon adenocarcinoma cells. For re-replication activation: % of control where 0% means no effect. Note: nearly all actives have a fitted effect of over 55% in size.
Conditions: Hoechst DNA content imaging, 48 h; re-replication activation: at 46.1 µM (top of the series) unless noted
Method in brief: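 Treated cells incubate 48 hr (37 C, 5% CO2), are stained 40 min with Hoechst, and nuclear fluorescence is enumerated; a rise in nuclei with high DNA signal marks re-replication.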
Potency is the fitted concentration of half-maximal effect.

SMILES	Potency	re-replication activation
CCCCn1c(=N)n(CC(O)COc2ccccc2)c2ccccc21 (stereo not given)	inconclusive: 25.9 µM [activator, single point]	
Cc1ccc(-c2nnc(N3CCC(C)CC3)c3ccccc23)cc1	inconclusive: 29.1 µM [activator, partial curve, poor fit]	
CCCn1nc(NC(=O)c2ccccn2)c2cc3cc(C)ccc3nc21	active: 7.31 µM	
C#CCOCCOCCOCCNc1nc(N2CCN(C(=O)CCCCCCCCCCNC(=O)Cn3cc(CCCCCN)nn3)CC2)nc(N2CCN(C(=O)CCCCCCCCCCNC(=O)[C@H]([C@@H](C)CC)n3cc(CCCCN=C(N)N)nn3)CC2)n1	inconclusive: 16.4 µM [activator, single point]	
Cc1ccc(NC(=S)NC(=O)C2CCCCC2)c(Br)c1	inconclusive: 23.1 µM [activator, single point]	
OC(COC(c1ccc(Cl)cc1)c1ccc(Cl)cc1)CN1CCCC1 (stereo not given)	inconclusive: 23.1 µM [activator, single point]	
Cc1ccc(NC(=O)c2ccc(-n3cccn3)c([N+](=O)[O-])c2)cc1		inactive: -11%
CCOc1ccc(C(=O)Nc2c(C(=O)N3CCC(N4CCCCC4)CC3)oc3ccccc23)cc1	inconclusive: 18.4 µM [activator, single point]	
CC(=O)Nc1cccc(C(=O)Nc2ccccc2C(=O)O)c1	inconclusive: 0.517 µM [activator, full curve, poor fit]	
COc1ccc(C2=NN(c3nc(-c4ccc(CNC(C)=O)cc4)cs3)C(c3ccco3)C2)cc1 (stereo not given)	inconclusive: 23.1 µM [activator, single point]	
O=C(CCCN1C(=O)/C(=C/c2ccccc2Cl)SC1=S)NCCCN1CCOCC1	inconclusive: 20.6 µM [activator, single point]	
COCc1cccc(NC(=O)Cc2cccc3ccccc23)c1		inactive: -12.5%
CN(C(=O)CSc1nc(N)c2c3c(sc2n1)CSC(C)(C)C3)c1ccccc1		inactive: 0.94%
O=C(CSc1nnc(-c2ccc(F)cc2)c2ccccc12)Nc1ccccc1		inactive: 3.26%
Cc1ccc2cc(CN(CCO)Cc3nnnn3Cc3ccc(F)cc3)c(=O)[nH]c2c1		inactive: -3.33% [at 9.22 µM]
NS(=O)(=O)c1ccc(CNS(=O)(=O)c2cc(Cl)ccc2Cl)cc1	inconclusive: 0.92 µM [activator, partial curve, poor fit]	
CCn1c(CN2CCN(Cc3ccc(C)cc3)C(CCO)C2)nc2ccccc21 (stereo not given)	inconclusive: 12.6 µM [activator, single point]	
C/C(=N\NC(=O)c1cccc(N/N=C(\C)c2cc(O)ccc2O)c1)c1cc(O)ccc1O	inconclusive: 2.31 µM [activator, full curve, poor fit]	
CC1CCN(S(=O)(=O)c2cccc(C(N)=O)c2)CC1	inconclusive: 11.6 µM [activator, partial curve, poor fit]	
CC1=CC(C)(C)n2c(O)c(N=N)c3c(C)c(C)cc1c32	inconclusive: 29.1 µM [activator, single point]	
COC1(OC)C=CC(=O)C=C1NC(=O)c1ccccc1OC(C)=O	inconclusive: 6.51 µM [activator, partial curve]	
Cc1onc(-c2c(F)cccc2Cl)c1C(=O)Nc1c(C)n(C)n(-c2ccccc2)c1=O	inconclusive: 16.4 µM [activator, single point]	
COc1cc(C(=O)NC(C)c2cccc3ccccc23)cc(OC)c1OC (stereo not given)		inactive: 5.44%
CCNC(=O)CCCOc1ccc(Cl)cc1Cl		inactive: -8.27%

Copied from the list:
In re-replication activation, `Cc1ccc(NC(=O)c2ccc(-n3cccn3)c([N+](=O)[O-])c2)cc1` reads inactive: -11%
In Potency, `COC1(OC)C=CC(=O)C=C1NC(=O)c1ccccc1OC(C)=O` reads inconclusive: 6.51 µM [activator, partial curve]
In Potency, `OC(COC(c1ccc(Cl)cc1)c1ccc(Cl)cc1)CN1CCCC1` (stereo not given) reads inconclusive: 23.1 µM [activator, single point]
In Potency, `C#CCOCCOCCOCCNc1nc(N2CCN(C(=O)CCCCCCCCCCNC(=O)Cn3cc(CCCCCN)nn3)CC2)nc(N2CCN(C(=O)CCCCCCCCCCNC(=O)[C@H]([C@@H](C)CC)n3cc(CCCCN=C(N)N)nn3)CC2)n1` reads inconclusive: 16.4 µM [activator, single point]
In Potency, `Cc1ccc(-c2nnc(N3CCC(C)CC3)c3ccccc23)cc1` reads inconclusive: 29.1 µM [activator, partial curve, poor fit]
In re-replication activation, `COCc1cccc(NC(=O)Cc2cccc3ccccc23)c1` reads inactive: -12.5%

Remaining list, next part

SMILES	Potency	re-replication activation
CCc1ccc(CNc2ccc(O)cc2)cc1	inconclusive: 31.6 µM [activator, single point]	
COC(=O)/C=C1\S/C(=N\N=C\CC(=O)OC)NC1=O	inconclusive: 29.1 µM [activator, single point]	
COc1ccccc1C(=O)Nc1cccc2c1CCCC2		inactive: -6.42%
S=c1[nH]nc(CSCc2ccc(Cl)cc2Cl)n1-c1ccccc1	inconclusive: 20.6 µM [activator, single point]	
COC(=O)C(F)(F)Sc1c(C)[nH]c2ccccc12	inconclusive: 29.1 µM [activator, single point]	
CCN(CC(=O)Nc1ccc(NC(C)=O)cc1)C(=O)c1cc(S(=O)(=O)N2CCCCCC2)ccc1OC	inconclusive: 6.51 µM [activator, single point]	
CCOC(=O)Cn1cc(C(=O)c2ccco2)c2ccccc21		inactive: -11.3%
O=C(Nc1cccn(Cc2c(F)cccc2Cl)c1=O)NC1CCCCC1	active: 18.4 µM	
COc1c(Cl)cc(C(=O)Nc2ccccc2-c2ccccc2)cc1Cl		inactive: 7.25%
Cc1ccc(SCC(=O)Nc2cc([N+](=O)[O-])ccc2O)cc1		inactive: 0.0853%
O=C(Cn1cc([N+](=O)[O-])ccc1=O)N1CCc2ccccc21	inconclusive: 20.6 µM [activator, partial curve, poor fit]	
COc1ccc(-c2noc(N3CCC(C(=O)N4CCN(c5ccccn5)CC4)CC3)n2)cc1		inactive: -7.92%
Cc1nc(-c2ccc(Cl)cc2)sc1C1(C)CC(c2ccc([N+](=O)[O-])cc2)=NO1 (stereo not given)	inconclusive: 0.0046 µM [activator, full curve, poor fit]	
COc1ccccc1-c1nc2c(c(SCC(=O)N3CCCCC3)n1)Cc1c(CO)cnc(C)c1O2		inactive: -8.4%
COc1ccc(C)cc1NC(=O)c1cc(S(=O)(=O)N2CCCCC2)ccc1N1CCOCC1		inactive: 16.4%
COc1cc2cc(CN(CCc3cccc(C)c3)C(=S)NCCCN(C)C)c(=O)[nH]c2cc1OC	inconclusive: 13 µM [activator, partial curve, poor fit]	
Cc1cc(CNC(=O)c2cccc3c2C(=O)c2ccc(-c4ccc(F)cc4OCc4ccccc4)cc2S3(=O)=O)c(C(F)(F)F)o1		inactive: 2.46%
Clc1cccc(-c2nnc(SC/C=C/c3ccccc3)n2Cc2ccco2)c1	inconclusive: 29.1 µM [activator, single point]	
Cc1ccc(C#CC[N+](C)(C)CC#Cc2ccccc2)cc1		inactive: -7.87%
CCc1cc(CNC(=O)c2ccc(OC3CCN(CCc4ccccc4)CC3)cc2)on1	inconclusive: 29.1 µM [activator, single point]	
O=[N+]([O-])c1cc(Cl)ccc1N1CCN(c2ccccc2O)CC1	inconclusive: 0.103 µM [activator, partial curve, poor fit]	
CCN1CCN(c2ccc(NC(=O)c3cccc(OCc4ccccc4)c3)cc2)CC1	inconclusive: 16.4 µM [activator, single point]	
COc1cccc(C2NC(=O)NC(C)=C2C(=O)Nc2ccc(C)cc2)c1OC (stereo not given)		inactive: 14.9%
Cc1cccc(NC(=O)c2ccc(C(=O)Nc3cccc(C)c3)nc2)c1	inconclusive: 29.1 µM [activator, single point]	

SMILES	Potency	re-replication activation
CCc1ccc(NC(=O)N(Cc2ccco2)C(C)c2cccs2)cc1 (stereo not given)		inactive: 1.74%
Cc1ccc(N(C(=O)c2snc(C(N)=O)c2N)C(C(=O)NCc2ccccc2)c2ccncc2)c(C)c1 (stereo not given)	inconclusive: 20.6 µM [activator, single point]	
N#CC(C#N)=C1CCc2ccccc2N1		inactive: -5.95%
CC(NC(=O)CN1CCOCC1)c1ccccc1 (stereo not given)	inconclusive: 3.66 µM [activator, single point]	
Cc1c(Cl)cccc1NC(=O)CNC(=O)C1CCN(C(=O)Nc2ccccc2)CC1	inconclusive: 29.1 µM [activator, single point]	
O=C(O)c1ccc2c(=O)n3c(nc2c1)/C(=C/c1ccc(OC(F)F)cc1OC(F)F)CC3	inconclusive: 29.1 µM [activator, single point]	
O=C(NNC(=O)c1ccccc1OCc1ccc(F)cc1)c1ccncc1	inconclusive: 18.4 µM [activator, partial curve, poor fit]	
O=C(Cn1ncn2cccc2c1=O)N1CCCCC1		inactive: -2.53% [at 9.22 µM]
COc1ccc(C(=O)Nc2nc3c(s2)CCCC3)cc1S(=O)(=O)N1CCCc2ccccc21	inconclusive: 13 µM [activator, partial curve, poor fit]	
CCC(=Nc1ccc(Cc2ccncc2)cc1)c1c(O)n(C)c(=O)n(C)c1=O		inactive: -1.77%
COCCN(C(=O)C(C)C)c1nnc(-c2cccc(C)c2)s1		inactive: -1.28%
Cc1cccc(OCC(=O)Nc2ccccc2N2CCN(C)CC2)c1		inactive: 4.75%
Cc1nc2c(-c3ccccc3)c(C)[nH]n2c(=O)c1Cc1ccccc1	inconclusive: 29.1 µM [activator, single point]	
O=C(Nc1ccnn1C1CCN(C/C=C/c2ccccc2)CC1)c1cccc(F)c1		inactive: 2.05%
Cc1cccc(/C=N/NC(=O)c2ccc(F)cc2)n1		inconclusive: -20.6% [activator]
O=C(NCCN1CCN(c2ccccc2F)CC1)C1CCCN(S(=O)(=O)c2cnc[nH]2)C1 (stereo not given)	inconclusive: 32.6 µM [activator, partial curve, poor fit]	
CCCCn1c(=O)c(-[n+]2ccccc2)c([O-])c2ccccc21		inactive: -3.94%
CCN(CC(=O)Nc1cc(Cl)ccc1C)C(=O)CSCc1ccc(C)cc1	inconclusive: 25.9 µM [activator, partial curve, poor fit]	
O=C(CNc1ccc(Br)cc1)Nc1cccc(S(=O)(=O)N2CCCC2)c1		inactive: 2.1%
COc1ccccc1OCC(=O)NNC(=S)NC(=O)c1ccco1		inactive: 5.77%
O=S(=O)(NCc1cc(-c2ccccc2)no1)c1ccccc1Cl	inconclusive: 29.1 µM [activator, single point]	
Cc1ccccc1C(=O)NCCc1nnc(SCC(=O)Nc2nc(-c3ccccc3)cs2)n1C		inactive: -6.29%

From PubChem BioAssay AID624297 (National Center for Advancing Translational Sciences (NCATS), 2012)
